Results are given in words; binding and its absence hold for the method and conditions named. Binding seen in cells or lysates may run through a third protein. Some binding calls cover weakened binding; strength is not graded here. For part of these data: Sequences can lack the tags named with a protein.
How the values were obtained:
NTAP-Dma1 (S. pombe) = target: T1, NTAP-Dma1 (S. pombe) (UniProt Q10322); assay: co-IP; NTAP-Dma1 or NTAP-Dma1-5xGly-Ub(7KR) precipitated from S. pombe lysate with IgG Sepharose beads; NP-40 buffer (Supplementary Fig. 1c)
T1 sequence: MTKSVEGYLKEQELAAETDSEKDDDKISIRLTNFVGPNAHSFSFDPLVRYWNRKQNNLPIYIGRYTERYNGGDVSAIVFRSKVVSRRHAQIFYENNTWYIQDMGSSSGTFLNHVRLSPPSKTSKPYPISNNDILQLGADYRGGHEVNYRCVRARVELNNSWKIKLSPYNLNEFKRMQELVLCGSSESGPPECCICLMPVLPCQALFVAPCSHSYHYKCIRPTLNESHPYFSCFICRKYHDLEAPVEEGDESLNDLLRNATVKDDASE

Chains of the proteins cited; added tags and fusions are not shown. Lines headed by an entry give the natural chain unless they say otherwise; changes in a name come on top.
UniProt P0CG48: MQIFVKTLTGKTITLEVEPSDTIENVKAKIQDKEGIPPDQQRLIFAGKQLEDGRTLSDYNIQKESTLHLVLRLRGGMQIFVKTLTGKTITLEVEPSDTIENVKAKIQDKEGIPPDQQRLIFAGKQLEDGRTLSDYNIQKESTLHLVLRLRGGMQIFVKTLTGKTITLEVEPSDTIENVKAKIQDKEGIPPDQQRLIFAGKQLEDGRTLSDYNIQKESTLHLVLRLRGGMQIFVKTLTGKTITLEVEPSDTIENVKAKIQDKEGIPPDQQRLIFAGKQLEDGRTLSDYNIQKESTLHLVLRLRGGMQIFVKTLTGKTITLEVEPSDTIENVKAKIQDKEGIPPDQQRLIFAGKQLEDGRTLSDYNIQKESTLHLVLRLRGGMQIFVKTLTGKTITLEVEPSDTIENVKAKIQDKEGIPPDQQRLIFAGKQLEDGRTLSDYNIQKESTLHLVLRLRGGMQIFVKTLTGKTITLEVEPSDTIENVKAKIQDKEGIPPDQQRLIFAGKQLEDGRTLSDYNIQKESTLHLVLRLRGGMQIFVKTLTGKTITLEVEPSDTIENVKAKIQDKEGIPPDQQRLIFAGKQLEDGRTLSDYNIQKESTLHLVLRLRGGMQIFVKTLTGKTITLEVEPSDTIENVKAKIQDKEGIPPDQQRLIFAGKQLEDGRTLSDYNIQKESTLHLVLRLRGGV

[1] = target: NTAP-Dma1-5xGly-ubiquitin(7K→7R) (S. pombe | not stated) (UniProt Q10322+P0CG48); assay: as above
Dma1-GFP (S. pombe) = target: T2, Dma1-GFP (S. pombe) (UniProt Q10322); assay: co-IP; lysates of S. pombe cells expressing GFP-tagged Dma1 (whole or 1-173aa) and 6HA-tagged Tip1 (whole or truncated); NP-40 buffer; GFP fusion immunoprecipitated with anti-GFP, anti-HA blot
T2 sequence: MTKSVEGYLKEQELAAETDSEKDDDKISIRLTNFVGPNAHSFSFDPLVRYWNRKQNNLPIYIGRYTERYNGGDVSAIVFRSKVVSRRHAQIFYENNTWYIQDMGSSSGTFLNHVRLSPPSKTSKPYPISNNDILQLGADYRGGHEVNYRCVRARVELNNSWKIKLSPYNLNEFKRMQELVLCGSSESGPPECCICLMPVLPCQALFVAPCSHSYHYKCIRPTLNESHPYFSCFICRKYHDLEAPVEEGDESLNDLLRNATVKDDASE

[2] = target: T3, MBP-Dma1(1-173aa) (S. pombe) (UniProt Q10322); assay: pull-down; purified bacterially expressed MBP-Dma1 variants incubated with clarified lysate of tip1-6HA yeast cells for 1–2 h at 4 °C in NP-40 buffer, precipitated by amylose resin, western blot; only the target purified
T3 sequence: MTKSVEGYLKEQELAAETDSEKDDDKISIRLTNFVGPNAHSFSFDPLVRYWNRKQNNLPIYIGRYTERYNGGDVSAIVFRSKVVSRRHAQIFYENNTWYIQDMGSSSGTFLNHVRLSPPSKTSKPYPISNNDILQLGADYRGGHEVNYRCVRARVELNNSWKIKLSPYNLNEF

[3] = target: T4, MBP-Dma1(full-length) (S. pombe) (UniProt Q10322); assay: as above
T4 sequence: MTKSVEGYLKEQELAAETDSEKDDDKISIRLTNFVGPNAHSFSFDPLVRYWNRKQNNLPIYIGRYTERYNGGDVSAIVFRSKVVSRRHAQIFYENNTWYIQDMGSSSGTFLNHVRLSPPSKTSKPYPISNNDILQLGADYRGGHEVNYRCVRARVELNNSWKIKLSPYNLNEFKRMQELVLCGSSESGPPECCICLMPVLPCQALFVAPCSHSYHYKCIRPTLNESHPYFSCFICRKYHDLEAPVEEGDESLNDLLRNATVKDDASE

MBP-Tea4 (S. pombe) = target: T5, MBP-Tea4 (S. pombe) (UniProt O60132); assay: pull-down; purified bacterially expressed MBP-Tea4 incubated with lysates of HU-treated Tip1-6HA yeast strains (wild type or dma1Δ; lysate with or without 50 nM USP2 for 2 h at 4 °C); 1–2 h at 4 °C; amylose resin; western blot; only the target purified
T5 sequence: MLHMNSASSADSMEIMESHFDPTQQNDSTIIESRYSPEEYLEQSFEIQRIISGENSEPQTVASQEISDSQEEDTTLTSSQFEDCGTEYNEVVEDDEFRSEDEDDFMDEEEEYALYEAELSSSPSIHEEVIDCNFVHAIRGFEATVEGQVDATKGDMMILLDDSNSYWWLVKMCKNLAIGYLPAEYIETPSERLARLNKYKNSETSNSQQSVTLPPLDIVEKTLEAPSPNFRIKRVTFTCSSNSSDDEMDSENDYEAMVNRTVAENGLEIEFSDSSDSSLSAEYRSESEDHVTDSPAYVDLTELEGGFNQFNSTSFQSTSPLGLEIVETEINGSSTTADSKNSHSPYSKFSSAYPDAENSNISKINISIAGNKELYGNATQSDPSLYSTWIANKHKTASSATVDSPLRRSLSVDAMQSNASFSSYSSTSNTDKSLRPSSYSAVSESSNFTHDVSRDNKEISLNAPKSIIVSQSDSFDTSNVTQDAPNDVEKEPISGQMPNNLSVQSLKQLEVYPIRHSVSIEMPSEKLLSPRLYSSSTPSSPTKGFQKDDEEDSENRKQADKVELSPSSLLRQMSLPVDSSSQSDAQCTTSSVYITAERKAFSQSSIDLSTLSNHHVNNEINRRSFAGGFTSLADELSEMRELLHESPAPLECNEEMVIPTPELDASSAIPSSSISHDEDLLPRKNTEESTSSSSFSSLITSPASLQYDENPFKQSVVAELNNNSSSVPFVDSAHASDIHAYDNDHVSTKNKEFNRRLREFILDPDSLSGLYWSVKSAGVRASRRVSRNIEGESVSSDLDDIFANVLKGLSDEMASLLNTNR

Measured: binding

B1: Tip1-6HA (protein, UniProt P79065 1-461)
chain: MFPLGSVVEVITGERGFVRYAGEVENRKGVYVGLELLPEFAEFGKNRGVVDGREYFKTKNNEKTGIFVPFDKCKLASSISSSPSPKIDGTAASIGMGFPPMSPNLQSSIPRLTNVSSSSNLSMNTISSTALTPTEKILQKRIEDLLYERQNHQQQLEEVLATVDQLQSLVTNFNDQQDEVDELRERITLKEERIQQMRNEASQRRFEFKTTIECLEESSNRAIETYENRIAELEAQLEMYMSGKSEDDLLFSLQQERDYALNQVEILQERVDTLMKQKANSSTANEKLSHMESSSPTLTNASFESPKRGKGSNDLPENHPQRRQTLEFYEIEIEVLREKVEKLQALSDEKDFYISKLEKSLDRNDTTPVPSDEKLSNYAAEKENLVSRISELEHTIEQLTINNERDNERMSPAEFELETTQEVEENDSDSHDDEETWCEVCETNNHSLQECPTVFGSTDEA
binds: all assays above
